{"source": "PubChem BioAssay AID1259308 (NCATS, 2017)", "screen": "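Candidate targets for better recombinant protein yield in mammalian cells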 (primary screen)", "cells": "human HEK293 embryonic kidney cells stably expressing firefly luciferase (HEK-CMV-Luc2-Hygro)", "reagents": "single siRNA against human genes, 0.8 pmol siRNA per well", "timing": "72 h", "detection": "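Luciferase light (ONE-Glo) measured on one replicate plate set and viability (CellTiter-Glo) on the other, scaled to a negative control siRNA, with robust z-scores and luciferase per cell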", "reading the numbers": "total luciferase, z-score: higher = more reporter protein produced", "rule for the call": "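An siRNA counts as active if its total luciferase robust z-score exceeds 3; genes with two or more such siRNAs out of three were retested with fresh siRNAs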", "calls": "active = raised luciferase; inactive = no rise", "note": "In all, the deposit lists about 59,000 reagents; this is a part drawn at random. In the full data, about 1,510 (2.6%) are marked active. 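Calls use total luciferase alone and ignore viability, so some active siRNAs may act by altering cell number.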 Entries without a mark were called inactive. Reagents against one gene are numbered here. Not all columns of the deposit are shown."}
{"gene": "KL (GeneID 9365)", "siRNA no.": 1, "total luciferase, z-score": -0.231}
{"gene": "KL (GeneID 9365)", "siRNA no.": 2, "total luciferase, z-score": -0.271}
{"gene": "KL (GeneID 9365)", "siRNA no.": 3, "total luciferase, z-score": -0.325}
{"gene": "DUSP2 (GeneID 1844)", "siRNA no.": 1, "total luciferase, z-score": -0.911}
{"gene": "DUSP2 (GeneID 1844)", "siRNA no.": 2, "total luciferase, z-score": -0.607}
{"gene": "DUSP2 (GeneID 1844)", "siRNA no.": 3, "total luciferase, z-score": -0.0437}
{"gene": "DHX35 (GeneID 60625)", "siRNA no.": 1, "total luciferase, z-score": 0.401}
{"gene": "DHX35 (GeneID 60625)", "siRNA no.": 2, "total luciferase, z-score": 0.701}
{"gene": "DHX35 (GeneID 60625)", "siRNA no.": 3, "total luciferase, z-score": 0.305}
{"gene": "SGK3 (GeneID 23678)", "siRNA no.": 1, "total luciferase, z-score": -0.782}
{"gene": "SGK3 (GeneID 23678)", "siRNA no.": 2, "total luciferase, z-score": -0.233}
{"gene": "SGK3 (GeneID 23678)", "siRNA no.": 3, "total luciferase, z-score": 1.6}
{"gene": "NOM1 (GeneID 64434)", "siRNA no.": 1, "total luciferase, z-score": -0.822}
{"gene": "NOM1 (GeneID 64434)", "siRNA no.": 2, "total luciferase, z-score": -0.37}
{"gene": "NOM1 (GeneID 64434)", "siRNA no.": 3, "total luciferase, z-score": -0.297}
{"gene": "LOC155060 (GeneID 155060)", "siRNA no.": 1, "total luciferase, z-score": 2.16}
{"gene": "LOC155060 (GeneID 155060)", "siRNA no.": 2, "total luciferase, z-score": 0.794}
{"gene": "LOC155060 (GeneID 155060)", "siRNA no.": 3, "total luciferase, z-score": 0.0234}
{"gene": "CCDC171 (GeneID 203238)", "siRNA no.": 1, "total luciferase, z-score": 1.42}
{"gene": "CCDC171 (GeneID 203238)", "siRNA no.": 2, "total luciferase, z-score": -1.74}
{"gene": "CCDC171 (GeneID 203238)", "siRNA no.": 3, "total luciferase, z-score": 0.811}
{"gene": "SYN1 (GeneID 6853)", "siRNA no.": 1, "total luciferase, z-score": -2}
{"gene": "SYN1 (GeneID 6853)", "siRNA no.": 2, "total luciferase, z-score": -0.901}
{"gene": "SYN1 (GeneID 6853)", "siRNA no.": 3, "total luciferase, z-score": 0.832}
{"gene": "ANKRD34C (GeneID 390616)", "siRNA no.": 1, "total luciferase, z-score": -0.789}
{"gene": "ANKRD34C (GeneID 390616)", "siRNA no.": 2, "total luciferase, z-score": 0.0184}
{"gene": "ANKRD34C (GeneID 390616)", "siRNA no.": 3, "total luciferase, z-score": -0.183}
{"gene": "JAG1 (GeneID 182)", "siRNA no.": 1, "total luciferase, z-score": 2.4}
{"gene": "JAG1 (GeneID 182)", "siRNA no.": 2, "total luciferase, z-score": -0.426}
{"gene": "JAG1 (GeneID 182)", "siRNA no.": 3, "total luciferase, z-score": -1.39}
{"gene": "TOR1AIP1 (GeneID 26092)", "siRNA no.": 1, "total luciferase, z-score": -0.403}
{"gene": "TOR1AIP1 (GeneID 26092)", "siRNA no.": 2, "total luciferase, z-score": -0.343}
{"gene": "TOR1AIP1 (GeneID 26092)", "siRNA no.": 3, "total luciferase, z-score": -0.647}
{"gene": "HOXB13 (GeneID 10481)", "siRNA no.": 1, "total luciferase, z-score": -1.88}
{"gene": "HOXB13 (GeneID 10481)", "siRNA no.": 2, "total luciferase, z-score": 0.265}
{"gene": "HOXB13 (GeneID 10481)", "siRNA no.": 3, "total luciferase, z-score": -0.712}
{"gene": "RPRD2 (GeneID 23248)", "siRNA no.": 1, "total luciferase, z-score": "4.01 (active)"}
{"gene": "RPRD2 (GeneID 23248)", "siRNA no.": 2, "total luciferase, z-score": -0.705}
{"gene": "RPRD2 (GeneID 23248)", "siRNA no.": 3, "total luciferase, z-score": -0.701}
{"gene": "L3MBTL3 (GeneID 84456)", "siRNA no.": 1, "total luciferase, z-score": 1.15}
{"gene": "L3MBTL3 (GeneID 84456)", "siRNA no.": 2, "total luciferase, z-score": -0.442}
{"gene": "L3MBTL3 (GeneID 84456)", "siRNA no.": 3, "total luciferase, z-score": 0.0202}
